Data as given in PubChem BioAssay AID2685 (National Center for Advancing Translational Sciences (NCATS), 2010).
Some of the results follow. The main result of the screen is listed elsewhere. These columns were measured beside it and carry no call. Compounds called inactive in the main read-out are mostly missing here. Potencies come from curve fits of mixed quality, noted in brackets.

Test: qHTS Assay for Lipid Storage Modulators in Drosophila S3 Cells;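 as to cell number change: cells counted by Cell Tracker Red CMTPX staining in the red channel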
Conditions: BODIPY lipid droplet fluorescence, 18-24 h; for cell number change: measured here: cell count max response, cells fed with added oleic acid
Method in brief: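 Drosophila S3 cells got compounds at several concentrations plus oleic acid (400 uM solution). Laser-scanning cytometry with 488 nm excitation read lipid droplets at 500-530 nm and cells at 575-640 nm. Percent activity was relative to 20 uM Triacsin C.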

[1] = measured here: lipid fluorescence (Fed channel) AC50, cells fed with added oleic acid
[2] = measured here: cell number channel AC50, cells fed with added oleic acid

SMILES	cell number change	AC50 [1]	AC50 [2]
O=S(=O)(NCCOCCNS(=O)(=O)c1ccccc1)c1ccccc1	4.14%	0.058 µM [falling, full curve, poor fit]	
CCc1nc2nc(C)c(NS(=O)(=O)c3cccs3)c(=O)n2[nH]1	18.5%	29.1 µM [rising, single point]	
O=C(N/N=C/c1c(Cl)cccc1Cl)C(=O)NC1CC1	-7.24%		
CC(C)CC(C(=O)N1CCc2ccccc2C1)N1C(=O)c2ccccc2C1=O (centres undefined)			1.84 µM [falling, partial curve]
CN(C)c1ccc(C(C(=O)NC2CCCC2)N(C(=O)c2ccco2)C2CC2)cc1 (centres undefined)	21.4%	0.326 µM [falling, single point]	
CCOc1ccc(NC(=O)CCc2c(C)noc2C)cc1OC	-10.7%		0.651 µM [falling, full curve, poor fit]
CCC(C)N=Cc1c(Nc2ccccc2)nc2c(C)cccn2c1=O (centres undefined)	14.1%	0.82 µM [rising, full curve]	
CCOc1ccccc1C(=O)NCC(=O)NCCc1ccc(S(N)(=O)=O)cc1	15.9%		
Cn1c(N)c(C(=O)COC(=O)CC(NC(N)=O)c2ccc(Cl)cc2)c(=O)n(C)c1=O (centres undefined)	-25%		
O=C(O)CCCN1C(=O)/C(=C\C(Cl)=C\c2ccccc2)SC1=S	-8.45%	18.4 µM [falling, partial curve]	
O=S(=O)(CCc1nc2ccccc2s1)c1ccc2ccccc2c1	63.3%	6.51 µM [falling, single point]	29.1 µM [rising, single point]
CCOC(=O)Cn1nnnc1CN(CCc1ccccc1)Cc1cc2cc(CC)ccc2[nH]c1=O		29.1 µM [rising, single point]	
Cc1ccc(-c2cc(C(F)(F)F)c(C#N)c(=O)[nH]2)cc1	6.88%		
CC1(C)N=C(SCC(=O)Nc2ccccc2)C(c2ccc(Cl)cc2)=N1	25.6%	11.6 µM [rising, partial curve, poor fit]	0.517 µM [rising, full curve]
O=c1[nH]nc(Cc2ccc(-c3ccccc3Cl)o2)c2ccccc12	-30.2%	0.13 µM [rising, full curve, poor fit]	20.6 µM [falling, single point]
CC(C)C12CN3CCN(CC(C3)/C1=N\NC(=O)Nc1ccccc1)C2	-64.6%		32.6 µM [falling, partial curve, poor fit]
CC(=O)c1ccc(N2CCN(C(=O)CCCc3nc4ccccc4s3)CC2)cc1	-2.07%	16.4 µM [falling, single point]	
Cn1c(CCCOc2ccc(Cl)cc2Cl)nnc1SCC(=O)Nc1ccc(F)c(Cl)c1	18.3%		0.164 µM [falling, full curve, poor fit]
CCOC(=O)N1CCN(c2cc(N3CCN(CC)CC3)c(F)cc2[N+](=O)[O-])CC1C (centres undefined)	125%		
O=C(NCCc1ccc(F)cc1)C1CCN(C(=O)Nc2ccccc2)CC1	-29.2%	0.651 µM [falling, full curve]	

SMILES	cell number change	AC50 [1]	AC50 [2]
Cc1ccc(S(=O)(=O)/N=C(/NC(=S)Nc2ccccc2)c2ccccc2)cc1	39.5%		7.31 µM [rising, partial curve, poor fit]
CC(Nc1nc(-c2ccncc2)nc2ccccc12)c1ccccc1 (centres undefined)	18%		0.651 µM [rising, full curve, poor fit]
COc1ccc(CN(C)c2ccc(S(=O)(=O)N3CCN(C)CC3)cc2[N+](=O)[O-])cc1OC	-10.3%	1.46 µM [falling, full curve]	2.31 µM [falling, partial curve]
Cn1cc(C(CC(=O)O)C(=O)O)c2ccccc21 (centres undefined)	-50.8%		0.184 µM [falling, full curve]
N#C/C(C(=O)Nc1ccc(Cl)cc1)=C(/S)Nc1ccccc1	11.1%		4.11 µM [rising, single point]
CCN(CC)CCCCCCCCOC(=O)c1cc(OC)c(OC)c(OC)c1	8.89%	5.8 µM [falling, single point]	
CCN1CCN(CCn2c(=S)[nH]c3ccccc3c2=O)CC1	-5.42%	18.4 µM [falling, partial curve]	
CCn1c(SCC(=O)Nc2nnc(C)s2)nnc1-c1ccco1	-1.18%	0.231 µM [falling, full curve, poor fit]	
COc1ccc(C(=S)N2CCCCC2)cc1Br	-6.05%		
Cc1ccc(N2NC(C)(c3cccs3)NC2=S)cc1 (centres undefined)	34.8%		3.66 µM [rising, partial curve]
Cc1c(N=C/C=C2\N(C)c3ccccc3C2(C)C)c(=O)n(-c2ccccc2)n1C	1.71%	0.00461 µM [rising, full curve, poor fit]	
Cc1sc2ncnc(Nc3ccccc3)c2c1C	7.41%	4.61 µM [rising, full curve]	
CCCn1c(OC)nc2c1c(=O)n(C)c(=O)n2C	27.6%	6.51 µM [falling, single point]	0.731 µM [falling, full curve]
COc1ccc(-c2nsc3c(N4CCN(S(=O)(=O)c5ccccc5)CC4)ncnc23)cc1	-4.1%		
O/N=C/c1cc(Br)ccc1OCc1cccc(F)c1		25.9 µM [falling, single point]	
Cc1nc2c3ccccc3nc(NNC(=O)CCC(=O)NCCN3CCN(c4ccccc4)CC3)n2n1	-17.9%	29.1 µM [falling, single point]	
Fc1ccc(NC(=S)N2CCN(c3cccc(C(F)(F)F)c3)CC2)cc1	-7.32%	20.6 µM [falling, single point]	2.06 µM [rising, partial curve]
CCOc1ccc(Cl)cc1S(=O)(=O)N1CCN(c2ccc(F)cc2)CC1			0.58 µM [rising, full curve]
O=C(Nc1ccc(F)cc1)c1ccccc1Oc1ccc(C(F)(F)F)cc1[N+](=O)[O-]	-28.7%	29.1 µM [falling, partial curve, poor fit]	
O=C(COC(=O)c1ccccc1-n1cnnn1)c1ccccc1	-5.02%	18.4 µM [rising, single point]	

SMILES	cell number change	AC50 [1]	AC50 [2]
N#Cc1cc2c(nc1SCC(=O)Nc1sc3c(c1C#N)CCC3)CCC2	-11.6%	6.51 µM [falling, single point]	
O=C(Nc1ccccc1N1CCN(C(=O)c2ccc(Cl)cc2)CC1)c1cccnc1	12.5%	29.1 µM [rising, single point]	
c1cc2c(cc1C1CCCCC1)c1c3n2CCCNC3CCC1 (centres undefined)	-76.7%	18.4 µM [falling, single point]	23.1 µM [falling, single point]
O=C(O)CCCNc1ccc(S(=O)(=O)N2CCCCC2)cc1	-17.7%	3.26 µM [falling, full curve, poor fit]	0.0082 µM [falling, full curve, poor fit]
CCN(CC)CCCNC(=O)CSc1nc(C)cc(C)n1	14.8%		
CCC(NC(=S)NCc1ccccc1)C(=O)O (centres undefined)	19.1%	29.1 µM [rising, single point]	
COc1cccc(-c2ccc3c(N)c(C(=O)NC4CC4)sc3n2)c1	-16.4%	4.11 µM [rising, full curve, poor fit]	
COC(=O)[C@H](Cc1ccccc1)NC(=O)O[C@@H]1C(=O)c2cc(OC)ccc2O[C@H]1c1ccc(OC)c(Br)c1	2.73%		
COc1cc(CC(=O)OCC(=O)Nc2ccc(N3CCOCC3)cc2)cc(OC)c1OC	17.6%		
CCc1ccc(-c2cc(C)no2)cc1S(=O)(=O)N1CC(=O)Nc2ccccc21		2.59 µM [falling, partial curve]	
Cc1nn(Cc2c(Cl)cccc2Cl)c(C)c1NC(=O)CCCn1nc([N+](=O)[O-])c(Cl)c1C	-10.5%	20.6 µM [falling, single point]	
COc1ccccc1C(=O)NCC(=O)NCCSc1ccc(Br)cc1	-0.497%		6.51 µM [rising, single point]
O=C(CNS(=O)(=O)c1ccc2ccccc2c1)OCc1nnc(-c2ccccc2)o1		0.146 µM [rising, full curve, poor fit]	
Cc1cccc(OCCCCc2c(C)n[nH]c2C)c1	-58.1%	29.1 µM [falling, single point]	29.1 µM [falling, single point]
Cc1ccc(C(c2sc3nc(C)nn3c2O)N2CCN(c3ccccc3)CC2)cc1 (centres undefined)	-40.5%	29.1 µM [falling, partial curve, poor fit]	32.6 µM [falling, partial curve, poor fit]
CCOc1ccc(NCc2nc3ccccc3n2CCOc2ccccc2)cc1	31.5%	7.31 µM [rising, partial curve]	6.51 µM [rising, partial curve]
Cn1c(=O)cc(OCCCC(=O)NCCN2CCN(c3ccccc3F)CC2)c2ccccc21	-0.552%	7.31 µM [rising, partial curve]	
O=C(CNc1cccc([N+](=O)[O-])c1)N/N=C/c1ccc(F)cc1	-0.221%		0.92 µM [rising, partial curve, poor fit]
CS(=O)(=O)c1ccc2nc(NC(=O)c3ccccc3)sc2c1	0.501%	0.517 µM [rising, single point]	
CCOc1ccc(C(=O)NCC(=O)OCC(=O)N2CCCCC2)cc1	14%		

Rewritten field by field: three of the compounds above
CCC(NC(=S)NCc1ccccc1)C(=O)O (centres undefined)
  cell number change: 19.1%
  AC50 [1]: 29.1 µM [rising, single point]
COc1ccccc1C(=O)NCC(=O)NCCSc1ccc(Br)cc1
  cell number change: -0.497%
  AC50 [2]: 6.51 µM [rising, single point]
O=C(CNc1cccc([N+](=O)[O-])c1)N/N=C/c1ccc(F)cc1
  cell number change: -0.221%
  AC50 [2]: 0.92 µM [rising, partial curve, poor fit]
